Source: patent US20130071398A1
Changes are numbered by the printed parent chain. No constants are given. Whether binding was seen depends on the method and setting. Some entries that bind do so weakly or less than the wild type. Values belong to the binder of their own block, whether it stands above or below them.

Key:
[1] = molecular target: dog CAPRIN-1 in dog tissues (dog); test: immunohistochemical staining of frozen dog breast cancer tissue
[2] = molecular target: dog CAPRIN-1 in dog tissues (dog); test: immunohistochemical staining of frozen normal dog tissue sections, 10 ug/ml antibody
[3] = molecular target: T1, polypeptide of SEQ ID NO: 37, a partial sequence peptide in the CAPRIN-1 protein (human); test: ELISA, CHO-K1 supernatant on immobilised peptide
T1 sequence (peptide): PPVNEPETLKQQNQYQAS

[4] = molecular target: dog CAPRIN-1 in dog tissues (dog); test: immunohistochemical staining of frozen normal dog tissue sections

binding [1]: binds | binding [2]: binds | binding [3]: binds
B1: human-chicken chimeric antibody #1 (antibody, V domains shown)
VH: AVTLDESGGGLQTPGGALSLVCKASGFTFSGYDMLWVRQAPGKGLEWVAGIGSTGGGTDYGAAVKGRATISRDNGQSTVRLQLNNLRAEDTATYYCAKVAGGCNSGYCRDSPGSIDAWGHGTEVIVS
VL: AVTQQPASVSANPGETVKITCSGGGSRNYYGWYQQKSPGSVPVTVIYYDDQRPSNIPSRFSGALSGSTSTLTITGVQADDEAVYFCGSADSNTYEGSFGAGTTLTVL

binding [1]: binds | binding [4]: binds | binding [3]: binds
B2: human-chicken chimeric antibody #2 (antibody, V domains shown)
VH: B1 VH
VL: B1 VL with Q5P
